Reference: PubChem BioAssay AID493014 (National Center for Advancing Translational Sciences (NCATS), 2011)
This is one part of the list. The main result of the screen is listed elsewhere. These columns were measured beside it and carry no call. The list favours compounds with an active or inconclusive main result. Potencies come from curve fits of mixed quality, noted in brackets.

Experiment: qHTS Assay to Find Inhibitors of Chronic Active B-Cell Receptor Signaling
Settings: ABC-DLBCL IkBa-CBG/CBR reporter, luminescence ratio (green luciferase fused to IkBa over red control in TMD8 lymphoma cells), 4 h
How it was run: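 Concentration-response series (up to 46 uM) were applied to TMD8 dual-reporter cells for 4 h at 37C with doxycycline. Green/red ratio, after filter-overlap correction, defined %Activity; red signal alone was normalised to basal cells and zero luminescence.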

[1] = measured here: CBR red luminescence, cell number
[2] = measured here: IkBa-CBG green luminescence

Question: With `COc1cc2c(c(OC)c1OC)-c1ccc(O)c(=O)cc1[C@@H](NC(C)=O)CC2` as the compound, how does the AC50 [1] read?
Answer: 23.1 µM [rising, partial curve]

Question: What about the AC50 [2] of the same compound?
Answer: 20.6 µM [falling, single point]

Question: With `C=C(C)CSc1nnc(-c2ccc(OC)cc2)n1N` as the compound, how does the AC50 [1] read?
Answer: 11.2 µM [rising, partial curve]

Question: Which AC50 [1] does the source give for `COc1ccc(N(Cc2ccccc2)N=O)cc1` here?
Answer: 17.8 µM [rising, single point]

Question: Which AC50 [1] does the source give for `Cc1ccccc1NC(=O)CCl` here?
Answer: 22.4 µM [falling, single point]

Question: With `Cc1cc(C)cc(NC(=O)CN2C(=O)CN=C(c3ccccc3)c3cc(Cl)ccc32)c1` as the compound, how does the AC50 [1] read?
Answer: 1.41 µM [rising, partial curve, poor fit]

Question: Which AC50 [1] does the source give for `CC/C(=N\NC(=O)c1ccccc1Cl)c1c(O)n(C2CCCCC2)c(=O)[nH]c1=O` here?
Answer: 1.26 µM [falling, partial curve, poor fit]

Question: For `CC1CCC/C=C/C2CC(O)CC2C(O)/C=C/C(=O)O1` (centres undefined), which AC50 [1] is on record?
Answer: 0.206 µM [falling, full curve, poor fit]

Question: Which AC50 [1] does the source give for `COc1c(C)cc(Br)cc1C(=O)Nc1ccc(Cc2ccncc2)cc1` here?
Answer: 35.5 µM [falling, single point]

Question: Which results are given for `Cc1ccc(N2C(=O)NC(=O)/C(=C/C=C/c3ccco3)C2=O)cc1`?
Answer: AC50 [1]: 29.1 µM [rising, single point]; AC50 [2]: 29.1 µM [falling, single point]

Question: For `CCCCCCOC(=O)c1ccccc1N`, which AC50 [1] is on record?
Answer: 0.517 µM [rising, full curve, poor fit]

Question: For `CC1(C)CN=C(Nc2ccc(F)c(Cl)c2)S1`, which AC50 [1] is on record?
Answer: 35.5 µM [rising, single point]

Question: With `Nc1ccccc1C(=O)OCC(=O)c1ccc2c(c1)OCCO2` as the compound, how does the AC50 [1] read?
Answer: 11.2 µM [falling, partial curve]

Question: Which AC50 [1] does the source give for `CCCCC(=O)N/N=C/c1c(O)n(CCCC)c(=S)[nH]c1=O` here?
Answer: 0.562 µM [rising, partial curve, poor fit]

Question: For `Cc1ccccc1-n1c(O)c(/C=N/c2nccs2)c(=O)[nH]c1=O`, which AC50 [1] is on record?
Answer: 0.708 µM [falling, full curve, poor fit]

Question: For `COc1ccc2c(c1OC)C(=O)OC2c1c(O)n(Cc2ccc(F)cc2)c(=O)[nH]c1=O` (centres undefined), which AC50 [1] is on record?
Answer: 1.64 µM [falling, partial curve, poor fit]

Question: And the AC50 [2]?
Answer: 2.31 µM [rising, partial curve, poor fit]

Question: With `CC1C(OC(=O)CCC(=O)NC(C)(C)CO)O[C@H]2OC3(C)CC[C@H]4[C@H](C)CCC1C24OO3` (some centres undefined) as the compound, how does the AC50 [1] read?
Answer: 8.91 µM [rising, partial curve, poor fit]

Question: With `CCCOc1ccccc1C1SCC(=O)Nc2c1c(=O)[nH]n2C(C)CCC` (centres undefined) as the compound, how does the AC50 [1] read?
Answer: 22.4 µM [falling, single point]

Question: With `Cc1ccccc1NC(=O)COC(=O)c1cc(C)n(C2CC2)c1C` as the compound, how does the AC50 [1] read?
Answer: 9.2 µM [falling, partial curve, poor fit]

Question: With `CCOc1ccc(-c2cc(C)[n+](CCc3ccc(OC)c(OC)c3)c(-c3ccc(OCC)cc3)c2)cc1` as the compound, how does the AC50 [1] read?
Answer: 17.8 µM [falling, single point]

Question: With `Cc1cc(OCc2cc(C(=O)O)oc2C)c2c3c(c(=O)oc2c1)CCCC3` as the compound, how does the AC50 [1] read?
Answer: 0.282 µM [falling, full curve, poor fit]

Question: Which AC50 [1] does the source give for `COc1ccccc1N1CCN(C2CCCN(C(=O)COc3ccccc3Cl)C2)CC1` (centres undefined) here?
Answer: 35.5 µM [falling, single point]

Question: Which AC50 [1] does the source give for `CCCCCCCSc1cc(OC)c(CCN(C)C)cc1OC` here?
Answer: 35.5 µM [falling, single point]

Question: For `COc1ccccc1-n1c(-c2ccc(C)cc2)nc2ccccc2c1=O`, which AC50 [1] is on record?
Answer: 6.31 µM [rising, single point]

Question: Which AC50 [1] does the source give for `Cc1cc(N2CCCCC2)ccc1C=C1C(=O)N(C)C(=S)N(C)C1=O` here?
Answer: 1.16 µM [rising, full curve, poor fit]

Question: For `Oc1cccc2nc3ccccc3nc12`, which AC50 [1] is on record?
Answer: 28.2 µM [falling, partial curve, poor fit]

Question: And the AC50 [2]?
Answer: 35.5 µM [falling, single point]

Question: With `CCOP(=O)(c1ccc(N(C)C)cc1)C(O)c1ccc(OC)cc1` (centres undefined) as the compound, how does the AC50 [1] read?
Answer: 3.98 µM [rising, full curve, poor fit]

Question: For `NC(=O)CN1CCCC1=O`, which AC50 [1] is on record?
Answer: 7.08 µM [rising, partial curve]

Question: For `COc1ccc(C(NC(=O)C(C)C)c2ccc3cccnc3c2O)cc1` (centres undefined), which AC50 [1] is on record?
Answer: 4.47 µM [falling, full curve, poor fit]

Question: With `C=CCc1cc(Cl)ccc1OC(=O)Nc1cccc(Cl)c1` as the compound, how does the AC50 [1] read?
Answer: 35.5 µM [rising, single point]

Question: With `COc1ccccc1CN1CCN(C(=O)COc2ccccc2)CC1` as the compound, how does the AC50 [1] read?
Answer: 25.9 µM [rising, single point]

Question: With `CCCNC(=O)N1[C@H]2CC[C@@H]1C(C(=O)OC)=C(c1ccc(-c3ccccc3)c(F)c1)C2` as the compound, how does the AC50 [1] read?
Answer: 18.4 µM [falling, partial curve]

Question: With `CN1CCN(Cc2c(F)cccc2Cl)CC1` as the compound, how does the AC50 [1] read?
Answer: 35.5 µM [falling, single point]

Question: With `O=c1[nH]c(=O)n(C2CCCCC2)c(O)c1/C=C/C=Nc1ccccc1` as the compound, how does the AC50 [1] read?
Answer: 3.55 µM [rising, partial curve]

Question: With `O=C1NC(=O)C(CCc2ccccn2)(Cc2cccc(Cl)c2Cl)C(=O)N1c1ccc(Br)cc1` (centres undefined) as the compound, how does the AC50 [1] read?
Answer: 9.2 µM [falling, partial curve]

Question: What about the AC50 [2] of the same compound?
Answer: 18.4 µM [rising, partial curve, poor fit]

Question: For `CCCCCCCCCCCCn1ccc(=N)cc1`, which AC50 [1] is on record?
Answer: 11.2 µM [falling, partial curve]

Question: What about the AC50 [2] of the same compound?
Answer: 17.8 µM [rising, partial curve, poor fit]

Question: With `O=C1/C(=C\c2ccncc2)N2CCC1CC2` as the compound, how does the AC50 [1] read?
Answer: 10 µM [falling, partial curve, poor fit]

Question: For `CC12CCC(=O)C=C1CCC1C2CCC2(C)C(O)CCC12` (centres undefined), which AC50 [1] is on record?
Answer: 17.8 µM [rising, single point]

Question: With `CC(=O)c1ccc(OC(=O)N(C)c2ccccc2)cc1` as the compound, how does the AC50 [1] read?
Answer: 10 µM [rising, partial curve, poor fit]

Question: Which AC50 [1] does the source give for `COC(=O)C1=C(c2ccccc2OCc2ccccc2)C[C@@H]2CC[C@H]1N2C(=O)NCCc1ccc(F)cc1` here?
Answer: 29.1 µM [falling, single point]

Question: For `OCC#CC[N+]1(CC#Cc2ccccc2)CCCC1`, which AC50 [1] is on record?
Answer: 11.2 µM [rising, partial curve, poor fit]

Question: With `c1cc(CCN2CCCC2)ccn1` as the compound, how does the AC50 [1] read?
Answer: 0.112 µM [falling, full curve, poor fit]

Question: Which AC50 [1] does the source give for `Cc1nn(Cc2ccccc2)c(Cl)c1C(=O)Nc1ccc(OC(F)(F)F)cc1` here?
Answer: 0.0366 µM [rising, full curve, poor fit]

Question: For `COC(=O)C1=C(c2ccc(-c3ccccc3)c(F)c2)C[C@@H]2CC[C@H]1N2C(=O)NCCCOC(C)C`, which AC50 [1] is on record?
Answer: 18.4 µM [falling, single point]

Question: With `CSCCC(N=Cc1c(O)n(-c2ccc(Br)cc2)c(=O)[nH]c1=O)C(=O)OC(C)(C)C` (centres undefined) as the compound, how does the AC50 [1] read?
Answer: 0.562 µM [falling, full curve, poor fit]

Question: Which AC50 [1] does the source give for `CCOP(=O)(OCC)C(Nc1cc(Cl)cc(Cl)c1)c1cccc(O)c1` (centres undefined) here?
Answer: 11.2 µM [falling, partial curve]

Question: For `Cc1ccc(Cn2cccc(C(=O)Nc3nc4ccc(C)cc4s3)c2=O)cc1`, which AC50 [1] is on record?
Answer: 11.2 µM [falling, partial curve, poor fit]

Question: Which AC50 [1] does the source give for `COc1ccccc1N1CCN(Cc2cnc(-c3ccccc3)[nH]2)CC1` here?
Answer: 12.6 µM [rising, partial curve]

Question: Which AC50 [1] does the source give for `Cc1cccc(-n2c(O)c(C)c(=O)[nH]c2=S)c1` here?
Answer: 35.5 µM [falling, single point]

Question: For `O=C1NC(=O)C2(Cc3ccccc3N3CCCC32)C(=O)N1c1ccc(Cl)cc1` (centres undefined), which AC50 [1] is on record?
Answer: 14.1 µM [falling, single point]

Question: For `O=C(O)CCn1cc(C=C2C(=O)NC(=S)NC2=O)c(-c2cccc(Cl)c2)n1`, which AC50 [1] is on record?
Answer: 3.16 µM [falling, partial curve]

Question: Which AC50 [1] does the source give for `CC(C)CC(c1nnnn1C(C)C)N1CCN(c2cccc(Cl)c2)CC1` (centres undefined) here?
Answer: 20 µM [falling, single point]

Question: With `Clc1ccc(CCC(Cn2ccnc2)Sc2c(Cl)cccc2Cl)cc1` (centres undefined) as the compound, how does the AC50 [1] read?
Answer: 1.84 µM [falling, partial curve, poor fit]

Question: Which AC50 [1] does the source give for `Cn1cnc([N+](=O)[O-])c1Sc1nnc(-c2cccnc2)n1C` here?
Answer: 35.5 µM [falling, single point]

Question: With `Nc1c(C(=O)OCc2ccccc2)c2nc3ccccc3nc2n1Cc1cccs1` as the compound, how does the AC50 [1] read?
Answer: 1.3 µM [falling, full curve]

Question: Which AC50 [1] does the source give for `CN(C)C(=O)Oc1ccc2c(c1)O/C(=C\c1ccccc1)C2=O` here?
Answer: 1 µM [rising, partial curve, poor fit]

Question: Which AC50 [1] does the source give for `O=C1NC(=O)N(c2ccccc2)C(=O)/C1=C/C=C/c1ccco1` here?
Answer: 17.8 µM [rising, partial curve, poor fit]

Question: What about the AC50 [2] of the same compound?
Answer: 35.5 µM [falling, single point]

Question: Which AC50 [1] does the source give for `CC(C)(C#CC(=O)O)OOC(c1ccccc1)(c1ccccc1)c1ccccc1` here?
Answer: 35.5 µM [rising, single point]

Question: Which AC50 [1] does the source give for `CN1C(=O)C(=Cc2ccc(OCC(=O)Nc3ccccc3)cc2)C(=O)N(C)C1=O` here?
Answer: 20 µM [falling, single point]

Question: For `Nc1c2c(nc3sc4c(c13)CCCCC4)CCCC2`, which AC50 [1] is on record?
Answer: 29.1 µM [falling, single point]

Question: Which AC50 [1] does the source give for `COc1ccc(/C=C2\SC(=S)N(CC3CCCO3)C2=O)cc1` (centres undefined) here?
Answer: 11.2 µM [rising, partial curve, poor fit]

Question: Which AC50 [1] does the source give for `COC(=O)C1=C(c2ccc(-c3ccccc3)c(F)c2)C[C@@H]2CC[C@H]1N2C(=O)NC1CC1` here?
Answer: 20.6 µM [falling, single point]

Question: Which AC50 [1] does the source give for `CC(=NCC1CCCO1)c1c(O)n(-c2ccc(C)cc2)c(=O)[nH]c1=O` (centres undefined) here?
Answer: 3.26 µM [rising, partial curve]
